In the supplement of paper PMC7024190:
Counter-ions that a name gives are not always drawn. The list shows a part of the results. Repeats in this data set agree poorly, so a single value says little.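 A first-round screen of about ten thousand compounds sought those raising reporter output, using human embryonic kidney cells briefly transfected with a plasmid carrying a Renilla luciferase gene driven by the HSV-TK promoter.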

These molecules were tested on HEK 293FT (assay: log relative Renilla luciferase luminescence (reporter expression vs reference, reference not stated) (log (base not stated)); higher = higher recombinant reporter expression). Conditions: 10 µM; time after transfection 48 h.
C(=C\c1ccccc1)/CN1CCN(C(c2ccccc2)c2ccccc2)CC1 [cinnarazine] gave a log of -0.0614.
For Cc1c(-c2cnccn2)ssc1=S [oltipraz], the log was -0.0484.
C[C@@H]1C[C@H]2[C@@H]3CCC4=CC(=O)C=C[C@]4(C)[C@@]3(F)[C@@H](O)C[C@]2(C)[C@@]1(O)C(=O)COP(=O)(O)O [dexamethasone sodium phosphate] gave a log of -0.182.
With CCN(CC)CCNC(C(=O)OCCC(C)C)c1ccccc1 (stereo not drawn) [camylofine dihydrochloride] the log was 0.0552.
C[C@]12CC[C@@H]3c4ccc(OC(=O)c5ccccc5)cc4CC[C@H]3[C@@H]1CC[C@@H]2O [estradiol benzoate] showed a log of -0.038.
With CN1CCN(C(c2ccccc2)c2ccccc2)CC1 [cyclizine] the log was 0.00792.
For OCCN(CCO)c1nc(N2CCCCC2)c2nc(N(CCO)CCO)nc(N3CCCCC3)c2n1 [dipyridamole], the log was -0.216.
In the case of O=C(O)c1ccccc1C(=O)Nc1ccc(S(=O)(=O)Nc2nccs2)cc1 [phthalylsulfathiazole], the log was 0.0305.
For C[N+](C)(C)CC(=O)O [betaine hydrochloride], the log was -0.0648.
Molecule CC(C)=CCC/C(C)=C/CC/C(C)=C/CO [farnesol] has a log of 0.146.
In the case of Cc1c(C(=O)O)c(O)cc2c1C(=O)c1c(O)c([C@@H]3O[C@H](CO)[C@@H](O)[C@H](O)[C@H]3O)c(O)c(O)c1C2=O [carminic acid], the log was 0.0214.
With CC(C)(C)C(=O)C(Oc1ccc(Cl)cc1)n1ccnc1 (stereo not drawn) [climbazole] the log was 0.108.
Cc1ccccc1OCC(O)CO (stereo not drawn) [mephenesin] showed a log of -0.0516.
For S=c1ccss1 [3h-1,2-dithiole-3-thione], the log was 0.133.
Work on c1ccc2c(c1)CN1CCCC1=N2 [deoxypeganine hydrochloride] yielded a log of 0.131.
For O=C1CN(/N=C/c2ccc([N+](=O)[O-])o2)C(=O)N1 [nitrofurantoin], the log was -1.61.
For C[C@H](N)[C@H](O)c1cccc(O)c1 [metaraminol bitartrate], the log was -0.0193.
CCN(CC)CCOC(=O)C(Cc1cccc2ccccc12)CC1CCCO1 (stereo not drawn) [nafronyl oxalate] gave a log of 0.0832.
For CC1(C)S[C@@H]2[C@H](NC(=O)C(C(=O)O)c3ccccc3)C(=O)N2[C@H]1C(=O)O (stereo partly drawn) [carbenicillin disodium], the log was -0.236.
For CCC(=O)Oc1ccc2c(c1)CC[C@@H]1[C@@H]2CC[C@]2(C)[C@@H](OC(=O)CC)CC[C@@H]12 [estradiol dipropionate], the log was -0.0613.
C=C[C@@H](C1=CC(=O)C(OC)=C(OC)C1=O)c1ccccc1 [3,4-dimethoxydalbergione] gave a log of 0.0313.
For CC(C)OC(=O)CCC/C=C\C[C@@H]1[C@@H](/C=C/[C@@H](O)COc2cccc(C(F)(F)F)c2)[C@H](O)C[C@@H]1O [travoprost], the log was -0.0803.
O=C1CN(/N=C/c2ccc(-c3ccc([N+](=O)[O-])cc3)o2)C(=O)N1 [dantrolene sodium] showed a log of -0.145.
Molecule COc1cc(O)c2c(c1)C(=O)c1cc(C)cc(O)c1C2=O [physcion] has a log of 0.033.
CCOC(=O)n1ccn(C)c1=S [carbimazole] showed a log of -0.000954.
In the case of CC1(O)CCC(C(C)(C)O)CC1 (stereo not drawn) [terpene hydrate], the log was 0.000491.
With CC1(C)S[C@@H]2[C@H](NC(=O)[C@H](C(=O)O)c3ccsc3)C(=O)N2[C@H]1C(=O)O [ticarcillin disodium] the log was 0.0567.
CN[C@@H]1[C@@H](O)[C@@H](O[C@@H]2[C@@H](O)[C@H](O[C@H]3OC(CN)=CC[C@H]3N)[C@@H](N)C[C@H]2N)OC[C@]1(C)O [sisomicin sulfate] gave a log of 0.0335.
Cc1cc(NS(=O)(=O)c2ccc(N)cc2)no1 [sulfamethoxazole] gave a log of 0.0849.
Work on CC[C@H]1OC(=O)C[C@@H](O)[C@H](C)[C@@H](O[C@@H]2O[C@H](C)[C@@H](O[C@H]3C[C@@](C)(O)[C@@H](O)[C@H](C)O3)[C@H](N(C)C)[C@H]2O)[C@@H](CC=O)C[C@@H](C)C(=O)/C=C/C(C)=C/[C@@H]1CO[C@@H]1O[C@H](C)[C@@H](O)[C@@H](OC)[C@H]1OC [tylosin tartrate] yielded a log of 0.0336.
COc1ccc2c(=O)c(-c3ccc(O)cc3)coc2c1 [isoformononetin] was tested, and the log was -0.043.
Molecule O=C(CCCCCCC(=O)Nc1ccccc1)NO [vorinostat] has a log of 0.313.
In the case of COC(=O)CC1C(C)(C)C(OC(C)=O)[C@@H]2[C@@H](OC(C)=O)[C@]34O[C@@]2(O)[C@]1(C)C3CC[C@]1(C)C4=CC(=O)O[C@H]1c1ccoc1 (stereo partly drawn) [xylocarpus a], the log was -0.139.
COc1ccc(C=CC(=O)O)cc1OC [3,4-dimethoxycinnamic acid] was tested, and the log was 0.0192.
CC1(C)O[C@@H]2C[C@H]3[C@@H]4CCC5=CC(=O)C=C[C@]5(C)[C@H]4[C@@H](O)C[C@]3(C)[C@]2(C(=O)CO)O1 [desonide] showed a log of 0.00864.
With CCN(CC)CCOc1ccc2c(c1)C(=O)c1cc(OCCN(CC)CC)ccc1-2 [tilorone] the log was 0.194.
Work on CCN(CC)C(=S)SSC(=S)N(CC)CC [disulfiram] yielded a log of 0.0331.
Work on C=C[C@@]1(C)CC(=O)[C@]2(O)[C@@]3(C)[C@@H](O)CCC(C)(C)[C@@H]3[C@H](O)[C@H](OC(C)=O)[C@@]2(C)O1 [colforsin] yielded a log of 0.146.
CN(Cc1cnc2nc(N)nc(N)c2n1)c1ccc(C(=O)NC(CCC(=O)O)C(=O)O)cc1 (racemic) [methotrexate(+/-)] showed a log of -0.559.
With C/C(=C(\CCOP(=O)(O)O)SC(=O)c1ccccc1)N(C=O)Cc1cnc(C)nc1N [benfotiamine] the log was -0.124.
Nc1c2c(nc3ccccc13)CCCC2 [tacrine hydrochloride] showed a log of 0.143.
Molecule CCCCC(CC)COC(=O)C(C#N)=C(c1ccccc1)c1ccccc1 (stereo not drawn) [octocrylene] has a log of 0.0621.
In the case of O=c1cc(-c2ccccc2)oc2cc(O)cc(O)c12 [chrysin], the log was -0.0611.
For C#C[C@]1(O)CC[C@H]2[C@@H]3CCc4cc(O)ccc4[C@H]3CC[C@@]21C [ethinyl estradiol], the log was 0.142.
CC(C)=CC1C(CO)C1(C)C (stereo not drawn) [chrysanthemyl alcohol] showed a log of -0.0992.
For Cc1occc(=O)c1O [larixinic acid], the log was -0.0383.
In the case of CC1(C)CC23C(=O)CCC(O)C2(C)CCC13 (stereo not drawn) [3-nor-3-oxopanasinsan-6-ol], the log was -0.121.
CCC(C(N)=O)c1ccccc1 (stereo not drawn) [fenbutyramide] was tested, and the log was -0.0145.
Molecule CCOc1cc(CC(=O)N[C@@H](CC(C)C)c2ccccc2N2CCCCC2)ccc1C(=O)O [repaglinide] has a log of 0.0689.
For COc1cc2c(cc1OC)C1(O)C(=O)c3ccc(O)c(C(=O)O)c3OC1CO2 (stereo not drawn) [12a-hydroxy-9-demethylmunduserone-8-carboxylic acid], the log was 0.102.
Molecule C#CCCCCCCCCCCCC(O)CC(O)COC(C)=O (stereo not drawn) [avocadyne acetate] has a log of -0.0374.
CC(=O)OCC(=O)[C@@]1(O)[C@H](C)C[C@H]2[C@@H]3CCC4=CC(=O)C=C[C@]4(C)[C@@]3(F)[C@@H](O)C[C@@]21C [dexamethasone acetate] was tested, and the log was 0.00852.
CC1(C)C(=O)C=CC2(C)C1C=CC1(C)C2CCC2(C)C(c3ccoc3)OC(=O)C3OC312 (stereo not drawn) [7-desacetoxy-6,7-dehydrogedunin] was tested, and the log was -0.0138.
In the case of COc1ncnc(NS(=O)(=O)c2ccc(N)cc2)c1OC [sulfadoxine], the log was -0.0119.
For CC1(C)CCC[C@]2(C)[C@H]3CC(=O)O[C@]3(C)CC[C@@H]12 [sclareolide], the log was 0.00562.
COc1c(N2C[C@@H]3CCCN[C@@H]3C2)c(F)cc2c(=O)c(C(=O)O)cn(C3CC3)c12 [moxifloxacin hydrochloride] was tested, and the log was -0.164.
COc1ccc(C(=O)c2ccccc2)c(O)c1 [oxybenzone] was tested, and the log was -0.0898.
In the case of COc1ccc(C(=O)CC(=O)c2ccc(C(C)(C)C)cc2)cc1 [avobenzone], the log was 0.00202.
Molecule Nc1nc2c(ncn2COCCO)c(=O)[nH]1 [acyclovir] has a log of 0.138.
For CC1(C)C(=O)[C@H]2C[C@]3(O)C4=CC(=O)O[C@@H](c5ccoc5)[C@@]4(C)CCC3[C@](C)(C2=O)[C@H]1CC(=O)O (stereo partly drawn) [8-hydroxycarapinic acid], the log was 0.144.
With CCCCCN(CCCCC)C(=O)C(CCC(=O)O)NC(=O)c1ccc(Cl)c(Cl)c1 (stereo not drawn) [lorglumide sodium] the log was 0.0647.
With O=c1cc(-c2ccccc2O)oc2cc(O)ccc12 [7,2'-dihydroxyflavone] the log was -0.013.
Work on CC(C)NCC(O)c1ccc(O)c(O)c1 (stereo not drawn) [isoproterenol hydrochloride] yielded a log of 0.136.
In the case of COc1ccc2[nH]c([S@@+]([O-])Cc3ncc(C)c(OC)c3C)nc2c1 [esomeprazole potassium], the log was 0.109.
With CCCCC(CC)COC(=O)C=Cc1ccc(OC)cc1 (stereo not drawn) [octinoxate] the log was 0.0873.
Molecule CC(C)c1c(O)ccc2c1CC[C@H]1C(C)(C)CCC[C@]21C [totarol] has a log of 0.0387.
CCCC1O[C@@H]2C[C@H]3[C@@H]4CCC5=CC(=O)C=C[C@]5(C)[C@H]4[C@@H](O)C[C@]3(C)[C@]2(C(=O)CO)O1 (stereo partly drawn) [budesonide] was tested, and the log was -0.0711.
O=NN(CCCl)C(=O)NCCCl [carmustine] showed a log of -0.075.
CCOC(=O)c1ncn2c1CN(C)C(=O)c1cc(F)ccc1-2 [flumazenil] showed a log of 0.0186.
CC1=C(/C=C/C(C)=C/C=C/C(C)=C/C=C/C=C(C)/C=C/C=C(C)/C=C/C2=C(C)C(=O)CCC2(C)C)C(C)(C)CCC1=O [canthaxanthin (euglenanone)] gave a log of 0.0767.
In the case of Nc1nc(N)c2nc(CNc3ccc(C(=O)N[C@@H](CCC(=O)O)C(=O)O)cc3)cnc2n1 [aminopterin], the log was -0.0551.
Work on CC(C(=O)O)c1cccc(C(=O)c2ccccc2)c1 (stereo not drawn) [ketoprofen] yielded a log of -0.137.
Molecule C[C@H]1O[C@@H](n2cc(F)c(=O)[nH]c2=O)[C@H](O)[C@@H]1O [doxifluridine] has a log of -0.0232.
